Some entries share one result that the patent states for a list of compounds. At least one compound was matched to its structure with a doubt left.
How the values were obtained:
Plasmopara viticola = type: in vivo; conditions: 200 ppm; grape vine leaf disks, preventative; compared to untreated control
Fusarium culmorum = type: cell-based; conditions: 200 ppm

Row | SMILES | disease control (Plasmopara viticola) | disease control (inhibition of growth, visual) (Fusarium culmorum)
1 | OB1OCc2cc(F)c(C=NNC(=S)NC3CCCCC3)cc21 (single isomer, unassigned) [Compound 120] | at least 80% | 
2 | OB1OCc2cc(F)c(C=NNc3nc4ccccc4o3)cc21 (single isomer, unassigned) [Compound 90] | at least 80% | 
3 | COc1ccc(NN=Cc2cc3c(cc2F)COB3O)cc1 (single isomer, unassigned) [Compound 107] | at least 80% | 
4 | C=CCNC(=S)NN=Cc1cc2c(cc1Cl)COB2O (single isomer, unassigned) [Compound 36] | at least 80% | 
5 | O=C(NN=Cc1cc2c(cc1F)COB2O)c1ccc2ccccc2n1 (single isomer, unassigned) [Compound 79] | at least 80% | 
6 | CCCON=Cc1ccc2c(c1)COB2O (single isomer, unassigned) [Compound 418] |  | at least 80%
7 | CCCCON=Cc1ccc2c(c1)COB2O (single isomer, unassigned) [Compound 401] |  | at least 80%
8 | OB1OCc2cc(C=NNC(=S)Nc3ccccc3)ccc21 (single isomer, unassigned) [Compound 389] | at least 80% | 
9 | OB1OCc2cc(F)c(C=NNC(=S)Nc3ccccc3)cc21 (single isomer, unassigned) [Compound 117] | at least 80% | 
10 | CC(Cl)=CCON=Cc1ccc2c(c1)COB2O [Compound 404] |  | at least 80%
11 | OB1OCc2cc(C=NOCC=CCl)ccc21 [Compound 393] |  | at least 80%
12 | CC(Cl)=CCON=Cc1cc(F)cc2c1B(O)OC2 [Compound 279] |  | at least 80%
13 | CCOC(=O)NN=Cc1cc2c(cc1F)COB2O (single isomer, unassigned) [Compound 91] | at least 80% | 
14 | COC(=O)C(Cc1ccccc1)ON=Cc1cc2c(cc1F)COB2O (single isomer, unassigned) [Compound 135] |  | at least 80%
15 | CC(C)NN=Cc1cc2c(cc1F)COB2O (single isomer, unassigned) [Compound 105] | at least 80% | 
16 | CON=Cc1cc(Cl)cc2c1B(O)OC2 (single isomer, unassigned) [Compound 208] |  | at least 80%
17 | CC(Cl)=CCON=Cc1cc2c(cc1F)COB2O [Compound 130] |  | at least 80%
18 | CC(C)NN=Cc1cc(Cl)cc2c1B(O)OC2 (single isomer, unassigned) [Compound 178] | at least 80% | 
19 | OB1OCc2cc(F)c(C=NNc3ccc(F)cc3F)cc21 (single isomer, unassigned) [Compound 89] | at least 80% | 
20 | CCCCCCON=Cc1ccc2c(c1)COB2O (single isomer, unassigned) [Compound 400] | at least 80% | 
21 | O=C(NN=Cc1cc2c(cc1F)COB2O)c1cc(Cl)ccc1Cl (single isomer, unassigned) [Compound 83] | at least 80% | 
22 | COC(=O)Cc1ccccc1CON=Cc1cc2c(cc1Cl)COB2O (single isomer, unassigned) [Compound 59] |  | at least 80%
23 | CC(C)ON=Cc1ccc2c(c1)COB2O (single isomer, unassigned) [Compound 412] |  | at least 80%
24 | CCOC(=O)NN=Cc1cc2c(cc1Cl)COB2O (single isomer, unassigned) [Compound 13] | at least 80% | 

Row | SMILES | disease control (Plasmopara viticola) | disease control (inhibition of growth, visual) (Fusarium culmorum)
25 | CON=Cc1cc2c(cc1F)COB2O (single isomer, unassigned) [Compound 140] |  | at least 80%
26 | OB1OCc2cc(F)c(C=NNc3c(Cl)cccc3Cl)cc21 (single isomer, unassigned) [Compound 115] | at least 80% | 
27 | C=C(Cl)CON=Cc1cc(Cl)cc2c1B(O)OC2 (single isomer, unassigned) [Compound 197] |  | at least 80%
28 | CCCCON=Cc1cc2c(cc1F)COB2O (single isomer, unassigned) [Compound 127] |  | at least 80%
29 | OB1OCc2cc(F)cc(C=NOCC=C(Cl)Cl)c21 (single isomer, unassigned) [Compound 280] |  | at least 80%
30 | OB1OCc2cc(F)cc(C=NOCC=CCl)c21 [Compound 271] |  | at least 80%
31 | OB1OCc2cc(Cl)c(C=NOCC=C(Cl)Cl)cc21 (single isomer, unassigned) [Compound 50] | at least 80% | 
32 | CC(C)=CCON=Cc1cc2c(cc1Cl)COB2O (single isomer, unassigned) [Compound 51] | at least 80% | 
33 | COC(=O)C(Cc1ccccc1)ON=Cc1ccc2c(c1)COB2O (single isomer, unassigned) [Compound 408] | at least 80% | 
34 | OB1OCc2cccc(C=NNc3c(Cl)cc(C(F)(F)F)cc3Cl)c21 (single isomer, unassigned) [Compound 315] | at least 80% | 
35 | OB1OCc2cc(F)c(C=NNc3cc(Cl)cc(Cl)c3)cc21 (single isomer, unassigned) [Compound 99] | at least 80% | 
36 | O=C(NN=Cc1cc2c(cc1Cl)COB2O)Nc1ccccc1 (single isomer, unassigned) [Compound 4] | at least 80% | 
37 | CCON=Cc1ccc2c(c1)COB2O (single isomer, unassigned) [Compound 413] |  | at least 80%
38 | OB1OCc2cc(Cl)cc(C=NNc3cc(F)ccc3F)c21 (single isomer, unassigned) [Compound 171] | at least 80% | 
39 | OB1OCc2cc(C=NOCc3ccc(Cl)cc3)ccc21 (single isomer, unassigned) [Compound 397] | at least 80% | 
40 | O=C(NN=Cc1cc2c(cc1F)COB2O)c1ccc(Cl)cc1 (single isomer, unassigned) [Compound 77] | at least 80% | 
41 | C#CCOc1cc(C(=O)NN=Cc2cc3c(cc2F)COB3O)c(F)cc1Cl (single isomer, unassigned) [Compound 111] | at least 80% | 
42 | OB1OCc2cc(Cl)c(C=NNC(=S)Nc3ccccc3)cc21 (single isomer, unassigned) [Compound 35] | at least 80% | 
43 | O=C(NN=Cc1cc2c(cc1F)COB2O)Nc1ccccc1 (single isomer, unassigned) [Compound 80] | at least 80% | 
44 | CCCCON=Cc1cc2c(cc1Cl)COB2O (single isomer, unassigned) [Compound 47] | at least 80% | 
45 | ON=Cc1cc(Cl)cc2c1B(O)OC2 (single isomer, unassigned) [Compound 222] | at least 80% | 
46 | Cc1ccc(CON=Cc2ccc3c(c2)COB3O)cc1 (single isomer, unassigned) [Compound 423] | at least 80% | 
47 | OB1OCc2cc(F)c(C=NNc3cc(F)ccc3F)cc21 (single isomer, unassigned) [Compound 96] | at least 80% | 
48 | O=[N+]([O-])c1cccc(NN=Cc2cc3c(cc2F)COB3O)c1 (single isomer, unassigned) [Compound 113] | at least 80% | 

Reference: US20170000132A1, “BENZOXABOROLE FUNGICIDES” (SYNGENTA PARTICIPATIONS AG, priority 2013, published 2017)
